Values are animals surviving of animals treated; these mice carried no tumour. Counts of survivors are from the toxicity check (mostly the fifth day) where no day follows; animals may have died later. Schedules are NCI's codes, taken here to give the interval after Q, in days (D) or hours (H), and the number of doses after X. Counts like (3×) stand for listed records that agree. Some entries were tested several times; the values are given in rising order.
System: B6D2F1 mice, nontumored toxicity test, survival
Assay: NCI In Vivo Anticancer Drug Screen. Data for tumor model Nontumored Animals (Toxicity Test) in B6D2F1 (BDF1) mice

Measured: survivor count

C[n+]1ccc(Nc2ccc(NC(=O)c3ccc(Nc4cc[n+](C)c5ccc(N)cc45)cc3)cc2)cc1
7 of 7 and 8 of 8: dose: 0.25 mg/kg/injection, schedule: Q03HX016 (ip), vehicle: water | dose: 0.5 mg/kg/injection, schedule: Q01DX009 (ip), vehicle: water
8 of 8: dose: 0.25 mg/kg/injection, schedule: Q03HX008 (ip), vehicle: water | dose: 0.25 mg/kg/injection, schedule: Q03HX024 (ip), vehicle: water | dose: 0.5 mg/kg/injection, schedule: Q01DX009 (sc), vehicle: water | dose: 0.5 mg/kg/injection, schedule: Q03HX024 (ip), vehicle: water | dose: 1.0 mg/kg/injection, schedule: Q01DX005 (ip), vehicle: water | dose: 1.0 mg/kg/injection, schedule: Q01DX009 (ip), vehicle: water | dose: 1.0 mg/kg/injection, schedule: Q01DX009 (sc), vehicle: water | dose: 1.0 mg/kg/injection, schedule: Q03HX008 (ip), vehicle: water | dose: 1.0 mg/kg/injection, schedule: Q03HX016 (ip), vehicle: water | dose: 1.0 mg/kg/injection, schedule: Q03HX024 (ip), vehicle: water | dose: 2.0 mg/kg/injection, schedule: Q01DX001 (sc), vehicle: water | dose: 2.0 mg/kg/injection, schedule: Q01DX005 (ip), vehicle: water | dose: 2.0 mg/kg/injection, schedule: Q01DX009 (ip), vehicle: water | dose: 2.0 mg/kg/injection, schedule: Q01DX009 (sc), vehicle: water | dose: 2.0 mg/kg/injection, schedule: Q03HX008 (ip), vehicle: water | dose: 2.0 mg/kg/injection, schedule: Q03HX016 (ip), vehicle: water | dose: 2.0 mg/kg/injection, schedule: Q04DX003 (ip), vehicle: water | dose: 2.0 mg/kg/injection, schedule: Q08DX002 (ip), vehicle: water | dose: 4.0 mg/kg/injection, schedule: Q01DX001 (ip), vehicle: water | dose: 4.0 mg/kg/injection, schedule: Q01DX001 (sc), vehicle: water | dose: 4.0 mg/kg/injection, schedule: Q01DX005 (ip), vehicle: water | dose: 4.0 mg/kg/injection, schedule: Q01DX009 (ip), vehicle: water | dose: 4.0 mg/kg/injection, schedule: Q01DX009 (sc), vehicle: water | dose: 4.0 mg/kg/injection, schedule: Q03HX008 (ip), vehicle: water | dose: 4.0 mg/kg/injection, schedule: Q04DX003 (ip), vehicle: water | dose: 4.0 mg/kg/injection, schedule: Q08DX002 (ip), vehicle: water | dose: 8.0 mg/kg/injection, schedule: Q01DX001 (sc), vehicle: water | dose: 8.0 mg/kg/injection, schedule: Q01DX009 (sc), vehicle: water | dose: 16.0 mg/kg/injection, schedule: Q01DX001 (sc), vehicle: water | dose: 16.0 mg/kg/injection, schedule: Q01DX009 (sc), vehicle: water
0 of 8 and 1 of 8: dose: 16.0 mg/kg/injection, schedule: Q01DX009 (ip), vehicle: water | dose: 32.0 mg/kg/injection, schedule: Q01DX001 (ip), vehicle: water | dose: 32.0 mg/kg/injection, schedule: Q04DX003 (ip), vehicle: water | dose: 32.0 mg/kg/injection, schedule: Q08DX002 (ip), vehicle: water
2 of 8 and 8 of 8: dose: 16.0 mg/kg/injection, schedule: Q04DX003 (ip), vehicle: water
0 of 8 and 7 of 8: dose: 64.0 mg/kg/injection, schedule: Q01DX001 (sc), vehicle: water
1 of 8 and 4 of 8: dose: 8.0 mg/kg/injection, schedule: Q03HX024 (ip), vehicle: water
0 of 8: dose: 16.0 mg/kg/injection, schedule: Q01DX005 (ip), vehicle: water | dose: 16.0 mg/kg/injection, schedule: Q08DX002 (ip), vehicle: water | dose: 64.0 mg/kg/injection, schedule: Q01DX001 (ip), vehicle: water | dose: 64.0 mg/kg/injection, schedule: Q04DX003 (ip), vehicle: water | dose: 64.0 mg/kg/injection, schedule: Q08DX002 (ip), vehicle: water
2 of 8 and 3 of 8: dose: 8.0 mg/kg/injection, schedule: Q03HX016 (ip), vehicle: water
5 of 7 and 8 of 8: dose: 8.0 mg/kg/injection, schedule: Q01DX005 (ip), vehicle: water
0 of 8 and 2 of 8: dose: 16.0 mg/kg/injection, schedule: Q01DX001 (ip), vehicle: water
1 of 8 and 8 of 8: dose: 8.0 mg/kg/injection, schedule: Q04DX003 (ip), vehicle: water
0 of 8 and 6 of 8: dose: 8.0 mg/kg/injection, schedule: Q03HX008 (ip), vehicle: water
6 of 6 and 8 of 8: dose: 0.5 mg/kg/injection, schedule: Q01DX005 (ip), vehicle: water
6 of 7 and 8 of 8: dose: 8.0 mg/kg/injection, schedule: Q08DX002 (ip), vehicle: water
7 of 8 and 8 of 8: dose: 0.5 mg/kg/injection, schedule: Q03HX008 (ip), vehicle: water | dose: 0.5 mg/kg/injection, schedule: Q03HX016 (ip), vehicle: water | dose: 2.0 mg/kg/injection, schedule: Q03HX024 (ip), vehicle: water | dose: 4.0 mg/kg/injection, schedule: Q03HX016 (ip), vehicle: water | dose: 4.0 mg/kg/injection, schedule: Q03HX024 (ip), vehicle: water | dose: 8.0 mg/kg/injection, schedule: Q01DX001 (ip), vehicle: water | dose: 32.0 mg/kg/injection, schedule: Q01DX001 (sc), vehicle: water
6 of 8: dose: 8.0 mg/kg/injection, schedule: Q01DX009 (ip), vehicle: water

N#Cc1cn(C2OC(CO)C(O)C2O)c2ncnc(N)c12 (stereo not given)
8 of 8: dose: 0.01 mg/kg/injection, schedule: Q06HX024 (ip), vehicle: saline | dose: 0.02 mg/kg/injection, schedule: Q06HX024 (ip), vehicle: saline | dose: 0.05 mg/kg/injection, schedule: Q06HX024 (ip), vehicle: saline | dose: 0.1 mg/kg/injection, schedule: Q06HX024 (ip), vehicle: saline
7 of 8: dose: 0.2 mg/kg/injection, schedule: Q06HX024 (ip), vehicle: saline
3 of 8: dose: 0.4 mg/kg/injection, schedule: Q06HX024 (ip), vehicle: saline

OC(C1CO1)C(O)C1CO1 (stereo not given)
10 of 10 (2×): dose: 10.0 mg/kg/injection, schedule: Q01DX001 (ip), vehicle: saline | dose: 12.5 mg/kg/injection, schedule: Q01DX001 (ip), vehicle: saline | dose: 15.0 mg/kg/injection, schedule: Q01DX001 (ip), vehicle: saline
9 of 10 and 10 of 10: dose: 15.0 mg/kg/injection, schedule: Q04DX003 (ip), vehicle: saline
10 of 10: dose: 6.7 mg/kg/injection, schedule: Q04DX003 (ip), vehicle: saline | dose: 10.0 mg/kg/injection, schedule: Q04DX003 (ip), vehicle: saline

COC(C(=O)C(O)C(C)O)C1CC2C=C3C=C(OC4CC(OC5CC(O)C(OC)C(C)O5)C(OC(C)=O)C(C)O4)C(C)C(=O)C3=C(O)C2=C(O)C1OC1CC(OC2CC(OC3CC(C)(O)C(OC(=O)C(C)C)C(C)O3)C(O)C(C)O2)C(O)C(C)O1 (stereo not given)
6 of 8: dose: 125.0 micrograms/kg/injection, schedule: Q01DX009 (ip), vehicle: saline | dose: 500.0 micrograms/kg/injection, schedule: Q01DX001 (ip), vehicle: saline | dose: 500.0 micrograms/kg/injection, schedule: Q04DX003 (ip), vehicle: saline | dose: 1000.0 micrograms/kg/injection, schedule: Q04DX003 (ip), vehicle: saline
0 of 8: dose: 1000.0 micrograms/kg/injection, schedule: Q01DX009 (ip), vehicle: saline
7 of 8: dose: 62.5 micrograms/kg/injection, schedule: Q01DX009 (ip), vehicle: saline | dose: 125.0 micrograms/kg/injection, schedule: Q01DX001 (ip), vehicle: saline
4 of 8: dose: 500.0 micrograms/kg/injection, schedule: Q01DX009 (ip), vehicle: saline
5 of 8: dose: 250.0 micrograms/kg/injection, schedule: Q01DX009 (ip), vehicle: saline | dose: 1000.0 micrograms/kg/injection, schedule: Q01DX001 (ip), vehicle: saline
3 of 8: dose: 500.0 micrograms/kg/injection, schedule: Q08DX002 (ip), vehicle: saline
8 of 8: dose: 31.2 micrograms/kg/injection, schedule: Q01DX001 (ip), vehicle: saline | dose: 31.2 micrograms/kg/injection, schedule: Q01DX009 (ip), vehicle: saline | dose: 31.2 micrograms/kg/injection, schedule: Q04DX003 (ip), vehicle: saline | dose: 31.2 micrograms/kg/injection, schedule: Q08DX002 (ip), vehicle: saline | dose: 62.5 micrograms/kg/injection, schedule: Q01DX001 (ip), vehicle: saline | dose: 62.5 micrograms/kg/injection, schedule: Q04DX003 (ip), vehicle: saline | dose: 62.5 micrograms/kg/injection, schedule: Q08DX002 (ip), vehicle: saline | dose: 125.0 micrograms/kg/injection, schedule: Q04DX003 (ip), vehicle: saline | dose: 125.0 micrograms/kg/injection, schedule: Q08DX002 (ip), vehicle: saline | dose: 250.0 micrograms/kg/injection, schedule: Q01DX001 (ip), vehicle: saline | dose: 250.0 micrograms/kg/injection, schedule: Q04DX003 (ip), vehicle: saline | dose: 250.0 micrograms/kg/injection, schedule: Q08DX002 (ip), vehicle: saline | dose: 1000.0 micrograms/kg/injection, schedule: Q08DX002 (ip), vehicle: saline

Source: PubChem BioAssay AID186 (DTP/NCI, 2004)
